Drawing on US20140010756A1, this text covers binding for 1 molecule.

By UniProt entry, the sequences of proteins in these tests, tags left out. Where a name states a change or a piece, a line headed by the entry shows the natural chain unless it says otherwise.
UniProt P14207: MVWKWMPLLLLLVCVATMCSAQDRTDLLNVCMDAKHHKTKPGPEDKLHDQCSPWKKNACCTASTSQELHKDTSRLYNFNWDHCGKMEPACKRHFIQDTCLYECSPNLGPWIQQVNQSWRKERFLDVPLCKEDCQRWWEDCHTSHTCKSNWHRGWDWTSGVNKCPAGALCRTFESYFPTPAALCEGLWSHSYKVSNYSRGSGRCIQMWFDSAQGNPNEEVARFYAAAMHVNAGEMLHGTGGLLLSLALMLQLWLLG

The assay has as its target human folate receptor β (FRβ) (human) (UniProt P14207). In words: hybridoma antibodies selected by reactivity with FRβ-expressing cells (human FRβ on mouse B300-19 cells); reactivity analysed by flow cytometry.

Results are given in words; binding and its absence hold for the method and conditions named. Some binding calls cover weakened binding; strength is not graded here.

B1: anti-human FRβ mouse monoclonal antibody 94b (antibody, mouse IgG1, V domains shown)
VH: EVQLQQSGAELVKPGASVRLSCTASGFNIKDTYMYWVKQRPEQGLEWIGRLDPANGNTRYDPKFQGKATITSDTSSNTAYLQLSSLTSEDTAVYYCAGDYPIIDYWGQGTTLTVSS
VL: DIVMSQSPSSLAVSAGEKVTMSCKSSQSLLNSRTRKTYLAWYQQKPGQSPKLLIYWASTRESGVPDRFTGSGSGTEFTLTISSVQAEDLAVYYCKQSYNLWTFGGGTKLEIKR
As for B1, the binding entry was “binds”.
